Among the data in the supplement of paper PMC4862054 are normalised response values, retold here.

Most entries show no effect beyond the scatter of the controls.

Common to all, as to assay: normalised response (% of control), CellTox Green; higher = less cell death (100 = DMSO, 0 = benzethonium chloride kill control)
Holding throughout (details): incubation time: 72 h

One assay has as its system HCC1937. The method, then: (§1)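 DSRT, 72 h incubation, CellTox Green / CellTiter-Glo readout. Signal is normalised to DMSO and benzethonium chloride controls. Value is the normalised response at the lowest tested concentration.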
For the next assay, the system named is MDA-MB-453. The method, then:
as §1

Another assay concerns CAL-120. Here is the method: as §1
In another assay the test system is CAL-148. The method, then: as §1
Another assay relates to MFM-223. Here is the method:
as §1

In a further assay the test system is HCC1143. Here is the method:
as §1

A further assay deals with HCC1599. The method, then:
as §1

Another assay concerns CAL-85-1. The method, then:
as §1

In a further assay the test system is BT-474. Here is the method: as §1
A further assay has as its system BT-549. The method, then:
as §1

The next assay has as its system CAL-51. Here is the method: as §1
The test system of another assay is MDA-MB-436. The method, then: as §1
The test system of a further assay is DU-4475. Here is the method:
as §1

For another assay, the system named is MDA-MB-231. Here is the method:
as §1

The next assay relates to MDA-MB-468. The method, then:
as §1

The next assay concerns Hs578T. Here is the method: as §1
In another assay the test system is HDQ-P1. The method, then: as §1
The next assay deals with MCF-10A. Here is the method:
as §1

Take `CC[C@H](CC#N)OC(=O)N[C@@H](C)c1cccc(NC(=O)Nc2ccc(-c3cnco3)c(OC)c2)c1` [AVN944] (1 nM): the normalised response was found to be 105% with HCC1937; 99.3% with MDA-MB-453; 98.8% in the assay on CAL-120; 52.8% in the assay with CAL-148; 101% with MFM-223; 94.6% in the assay with HCC1143. In addition, the normalised response in the assay on HCC1599 was found to be 101%; in the assay on CAL-85-1, 101%; in the assay on BT-474, 97.3%; in the assay on BT-549, 98.9%; with CAL-51, 79.7%; with MDA-MB-436 it was 82.5%. Also, the normalised response with DU-4475 worked out at 98.4%; with MDA-MB-231, 96.4%; with MDA-MB-468, 95.1%; with Hs578T it was 97.9%.
Take `CN(C)c1nc(N(C)C)nc(N(C)C)n1` [Altretamine] (1 nM): the normalised response in the assay with HCC1937 amounted to 99.8%; with MDA-MB-453 it was 104%; in the assay with CAL-120 it was 103%; with CAL-148, 104%; in the assay on MFM-223, 98%; with HCC1143 it was 129%. Further, the normalised response in the assay with HDQ-P1 came out at 99%; in the assay with MCF-10A, 92.9%; in the assay on HCC1599, 110%; in the assay on CAL-85-1, 107%; in the assay with BT-474, 101%; in the assay on BT-549 it was 87.6%. The normalised response in the assay with CAL-51 was 119%; with MDA-MB-436 it was 82.2%; in the assay on DU-4475 it was 105%; in the assay with MDA-MB-231 it was 109%; in the assay with MDA-MB-468, 58.2%.
In the case of `Cc1nc(Nc2ncc(C(=O)Nc3c(C)cccc3Cl)s2)cc(N2CCN(CCO)CC2)n1` [Dasatinib] (0.1 nM), the normalised response in the assay with HCC1937 turned out to be 55%; in the assay on MDA-MB-453 it was 102%; in the assay with CAL-120, 105%; with CAL-148, 102%; in the assay on MFM-223 it was 104%; in the assay with HCC1143, 120%. In addition, the normalised response in the assay with MCF-10A was determined as 113%; in the assay with HCC1599 it was 111%; with CAL-85-1 it was 106%; with BT-474, 98.2%; with BT-549, 101%; with CAL-51, 84.4%. In addition, the normalised response in the assay on MDA-MB-436 is 102%; with DU-4475, 107%; in the assay with MDA-MB-231 it was 103%; in the assay with MDA-MB-468, 110%; with Hs578T, 93.9%.
For the molecule `CO[C@@H]1[C@H](N(C)C(=O)c2ccccc2)C[C@H]2O[C@]1(C)n1c3ccccc3c3c4c(c5c6ccccc6n2c5c31)C(=O)NC4` [Midostaurin] (1 nM), the normalised response in the assay on HCC1937 was found to be 95.5%; with MDA-MB-453, 94.7%; in the assay with CAL-120, 96.8%; in the assay on CAL-148, 105%; in the assay on MFM-223, 101%; in the assay with HCC1143, 111%. Besides, the normalised response in the assay on HDQ-P1 was found to be 76.6%; in the assay on MCF-10A, 101%; in the assay on HCC1599, 82.3%; in the assay on CAL-85-1, 109%; in the assay with BT-474, 97.3%; with BT-549, 90.5%. In addition, the normalised response in the assay on CAL-51 came out at 105%; with DU-4475, 95.4%; with MDA-MB-231, 101%; in the assay with MDA-MB-468 it was 58.1%.
For the molecule `C[C@]12C=CC(=O)C=C1CC[C@@H]1[C@@H]2[C@@H](O)C[C@@]2(C)[C@H]1CC[C@]2(O)C(=O)CO` [Prednisolone] (1 nM), the normalised response came to 101% with MDA-MB-453; 98.2% with CAL-120; 91.9% in the assay with CAL-148; 99.1% in the assay on MFM-223; 121% in the assay with HCC1143; 99.9% with HDQ-P1. Also, the normalised response came out at 104% with MCF-10A; 92.9% in the assay with HCC1599; 98.5% in the assay with CAL-85-1; 101% with BT-474; 79.5% in the assay with BT-549; 100% with CAL-51. Further, the normalised response was 88.6% in the assay on MDA-MB-436; 101% in the assay with DU-4475; 112% in the assay on MDA-MB-231; 109% with MDA-MB-468; 92.2% in the assay on Hs578T.
Take `CNC(=O)c1ccc(N2C(=S)N(c3ccc(C#N)c(C(F)(F)F)c3)C(=O)C23CCC3)cc1F` [RD162] (1 nM): the normalised response in the assay with MDA-MB-453 was determined as 106%; with CAL-120 it was 103%; with CAL-148, 102%; in the assay on MFM-223, 106%; in the assay with HCC1143 it was 112%; in the assay with HDQ-P1 it was 108%. Further, the normalised response in the assay on MCF-10A is 107%; in the assay with HCC1599 it was 109%; in the assay with CAL-85-1, 98.7%; in the assay with BT-474 it was 100%; in the assay on BT-549, 90.8%; in the assay on CAL-51 it was 116%. Besides, the normalised response in the assay on MDA-MB-436 is 100%; in the assay on DU-4475, 107%; in the assay on MDA-MB-231 it was 111%; in the assay with MDA-MB-468 it was 91.7%; in the assay on Hs578T it was 114%.
Consider `O=C(c1ccc(C(=O)N2CCC(N3CCCC3)CC2)c(Nc2ccccc2)c1)N1CCC(N2CCCC2)CC1` [UNC1215] (3 nM), for which the normalised response with HCC1937 amounted to 103%; in the assay on MDA-MB-453, 101%; in the assay on CAL-120 it was 101%; in the assay with CAL-148, 94.4%; in the assay on MFM-223, 98.6%; in the assay on HCC1143, 92.4%. Further, the normalised response in the assay with HCC1599 was found to be 105%; in the assay with CAL-85-1 it was 84.4%; with BT-474, 99.1%; in the assay on BT-549, 84.7%; with CAL-51, 112%; in the assay on MDA-MB-436, 91.9%. In addition, the normalised response with DU-4475 came to 102%; with MDA-MB-231, 102%; with MDA-MB-468 it was 71.8%; in the assay on Hs578T, 105%.
For the molecule `O=C(CCCCCCC(=O)Nc1ccccc1)NO` [Vorinostat] (1 nM), the normalised response with HCC1937 stood at 59%; with MDA-MB-453, 100%; in the assay on CAL-120 it was 103%; with CAL-148 it was 94.7%; with MFM-223, 101%; in the assay with HCC1143, 109%. Further, the normalised response in the assay on MCF-10A is 84%; in the assay with HCC1599 it was 96.7%; in the assay with CAL-85-1, 97.9%; with BT-474 it was 91.7%; in the assay with CAL-51 it was 72.1%; in the assay with MDA-MB-436, 89.2%. Also, the normalised response in the assay on DU-4475 turned out to be 97.1%; with MDA-MB-231, 103%; with MDA-MB-468, 88.2%; in the assay with Hs578T, 98.8%.
